Results reported in patent US20210228741A1, “METHODS AND COMPOSITIONS TO STIMULATE RETINAL REGENERATION” (UNIVERSITY OF WASHINGTON, priority 2018, published 2021).
Some of these results come from one statement about several compounds together.

System: Ascl1-reporter Müller glia
Test: miRNA mimic/antagomiR transfection of P11 MG cultures from Ascl1-CreER:tdTomato reporter mice
Format: cell-based, mouse
Settings: young (P11) MG in vitro, summary statement; listed as miR-25 (mimic)
Excerpt: To test whether miRNAs regulate the neurogenic competence of MG, we used primary dissociated cell cultures, since this method has proven effective for identifying reprogramming factors that are effective both in vitro and in vivo (Jorstad et al., 2017; Pollak et al., 2013; Ueki et al., 2015). We hypothesized that miRNAs highly expressed in RPCs may be important in establishing and maintaining the RPC gene expression pattern. One prediction of this hypothesis is that over-expression of the RPC-miRNAs in MG would cause the MG to adopt a progenitor-like gene expression profile. […]
MG cultures from P11 Ascl1-CreER:tdTomatoflSTOP/flSTOP mice were transfected with either a cocktail of all four RPC-miR mimics, or each miRNA mimic individually (FIG. 10B). We added 4-Hydroxy-tamoxifen to the cultures to activate the cre-recombinase and monitored the cells for tdTomato expression. […]
Müller glia were dissociated (see above) from postnatal day (P) 11/12 mice and adult (one month, 2, and 4 months) and grown in Neurobasal medium supplemented with N-2, tetracycline-free 10% fetal bovine serum (FBS, Clontech), and epidermal growth factor (EGF, R&D Systems, 100 ng/mL) as described previously (Ueki et al., 2012). […] EdU was added either with the onset of culturing to track cell proliferation of MG lineage or after transfection to quantify cell proliferation due to the treatment. […]

Substance: miR-25: miR-25 mimic, CAUUGCACUUGUCUCGGUCUGA (SEQ ID NO: 22); double-stranded, preprocessed miRNA (double-stranded mimic, other strand not given here)
- conversion of MG into a neuronal/RPC phenotype: up to 40%
